In the test the target is ABI1 (1-158) (UniProt Q8IZP0). Description: SEC; Recombinant subunits expressed individually; CYFIP1-NCKAP1 dimer and BRK1-ABI1-NHSL1 (or WAVE1) trimer reconstituted; pentamers purified on SOURCE 15Q and Superdex 200 (24 ml column); both purified. On the technique in general: SEC sorts molecules by how far they enter the pores of the column.

Sequences of proteins named here, by UniProt entry; tags and fusion partners are left off. Residues count along the entry.
UniProt Q8IZP0, residues 1-158: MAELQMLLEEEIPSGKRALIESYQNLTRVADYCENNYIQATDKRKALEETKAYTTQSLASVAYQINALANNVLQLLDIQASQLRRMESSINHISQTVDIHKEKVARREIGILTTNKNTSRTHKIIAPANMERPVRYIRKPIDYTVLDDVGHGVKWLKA
UniProt Q92558, residues 1-230: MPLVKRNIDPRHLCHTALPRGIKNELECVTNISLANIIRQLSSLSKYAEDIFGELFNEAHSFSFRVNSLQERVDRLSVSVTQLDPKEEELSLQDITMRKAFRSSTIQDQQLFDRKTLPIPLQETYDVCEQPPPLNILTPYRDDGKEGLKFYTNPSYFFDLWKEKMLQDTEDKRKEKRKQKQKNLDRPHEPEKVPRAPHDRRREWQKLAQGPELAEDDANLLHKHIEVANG

No constants are given. Whether binding was seen depends on the method and setting. Some entries that bind do so weakly or less than the wild type.

On to “WAVE1 (1-230) (from UniProt Q92558 1-230) (domain or fragment)”, for which the binding result is recorded as “binds”.

For the origin of these results see article PMC10272187, “PPP2R1A regulates migration persistence through the NHSL1-containing WAVE Shell Complex” (Nature Communications, 2023).
